Measurements published in PMC3102665, “A Sir2-Like Protein Participates in Mycobacterial NHEJ” (PLoS ONE, 2011).
Results are given in words; binding and its absence hold for the method and conditions named. Some binding calls cover weakened binding; strength is not graded here. Where a sequence is shown, tags or fusion partners need not be part of it.

Biological target: T1, GST-MsmSir2 fusion protein (M. smegmatis) (UniProt A0R2N3)
T1 sequence: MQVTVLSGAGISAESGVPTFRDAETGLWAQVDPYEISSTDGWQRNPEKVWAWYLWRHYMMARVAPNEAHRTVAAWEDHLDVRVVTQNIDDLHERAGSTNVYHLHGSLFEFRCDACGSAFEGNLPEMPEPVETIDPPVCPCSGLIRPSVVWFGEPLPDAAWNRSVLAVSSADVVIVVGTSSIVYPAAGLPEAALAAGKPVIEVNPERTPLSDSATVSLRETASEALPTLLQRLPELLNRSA
Test: pull-down; GST fusion held on glutathione-Sepharose 4B beads, incubated with purified His-tagged protein at 4°C for 8 h in 50 mM Tris-HCl pH 7.5, 200 mM NaCl, 10% glycerol; washes with 0.1% Nonidet P-40; Western blot with anti-His-tag antibody; both purified

binding: binds
B1: His-MsmKu protein (protein, UniProt A0R3S7 1-318)
chain: MRSIWKGSIAFGLVNVPVKVYSATEDHDIKFHQVHAKDNGRIRYKRVCEVCGEVVEYRDINKAFESDDGQMVVITDEDIATLPEERSREIEVVEFIPAEQLDPLMYDKSYFLEPDSKSSKSYVLLAKTLAETDRIAIVHFSLRNKSRLAALRVKDFSKRDVMMIHTLLWPDEIRDPDFPILDKEVQIKPAELKMAGQVVESMTDDFKPDLYHDDYQEQLRELVQAKLEGGEAFSVEEQPAELDEGTEDVSDLLAKLEASVKARKGGKSDSKDDSDSESDSKESKSDSKPAKKAPAKKAAAKKSTAKKAPAKKAAAKKS
